Record: PubChem BioAssay AID652243 (Drosophila RNAi Screening Center, 2013)
In all, the deposit lists about 24,000 reagents; below is a random part of those that have a named target and a result. Over the whole deposit, 246 (1%) are marked active. 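Plates not normalised; calls are printed but the firefly/Renilla ratio behind them is not deposited; fold cut for lowering reported inconsistently.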 Raw values vary from plate to plate and are shown uncorrected. The record does not give: the amount of reagent.

- Test: 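Fly genes required for human androgen receptor driven transcription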 (primary screen)
- System: Drosophila S2R+ cells
- Reagents: long dsRNA against Drosophila genes
- Time to read-out: 72 h (48 h, then 24 h hormone)
- Challenge: synthetic androgen R1881 at 10 nM for 24 h
- Measured: 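Per-well raw luminescence of the androgen-driven firefly reporter and of the Renilla control, two replicates each, without normalisation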
- Scale: firefly reporter light: higher = more light from androgen-responsive reporter; Renilla control light: higher = more constitutive control signal (cell number, transfection)
- Rule for the call: 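Across duplicate plates, a knock-down whose log firefly/Renilla ratio shifted a set fold down or up from the GFP/LacZ control mean was a hit; the downward cut appears as both 1.5 and 3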
- Calls: active = hit: reporter lowered or raised; inactive = no hit

Pp2A-29B [DRSC03400] showed firefly reporter light, replicate 1 = 1.66e5; firefly reporter light, replicate 2 = 1.72e5; Renilla control light, replicate 1 = 2.67e6; Renilla control light, replicate 2 = 2.56e6; inactive.
With knock-down of Pp2A-29B [DRSC28394], the screen gave firefly reporter light, replicate 1 = 5.14e5; firefly reporter light, replicate 2 = 7.46e5; Renilla control light, replicate 1 = 8.21e5; Renilla control light, replicate 2 = 1.15e6; inactive.
After knock-down of Pp2A-29B [DRSC37013], the screen gave inactive.
Depletion of Mal-A7 [DRSC06077] gave: firefly reporter light, replicate 1 = 3.04e5; firefly reporter light, replicate 2 = 2.97e5; Renilla control light, replicate 1 = 1.64e6; Renilla control light, replicate 2 = 1.35e6; inactive.
Depletion of CG42685 [DRSC01971] resulted in: firefly reporter light, replicate 1 = 3.25e5; firefly reporter light, replicate 2 = 3.30e5; Renilla control light, replicate 1 = 2.03e6; Renilla control light, replicate 2 = 1.94e6; inactive.
For CG42685 [DRSC38625] the deposit lists firefly reporter light, replicate 1 = 9.24e5; firefly reporter light, replicate 2 = 8.08e5; Renilla control light, replicate 1 = 2.33e6; Renilla control light, replicate 2 = 1.64e6; inactive.

2 entries from above, set out differently.
Gene | dsRNA | firefly reporter light, replicate 1 | firefly reporter light, replicate 2 | Renilla control light, replicate 1 | Renilla control light, replicate 2 | Call
Pp2A-29B | DRSC28394 | 5.14e5 | 7.46e5 | 8.21e5 | 1.15e6 | inactive
Pp2A-29B | DRSC37013 | – | – | – | – | inactive

The results go on:
PGAP5 [DRSC03089] gave firefly reporter light, replicate 1 = 1.97e5; firefly reporter light, replicate 2 = 2.42e5; Renilla control light, replicate 1 = 1.97e6; Renilla control light, replicate 2 = 1.79e6; inactive.
PGAP5 [DRSC27504] scored firefly reporter light, replicate 1 = 2.12e5; firefly reporter light, replicate 2 = 2.24e5; Renilla control light, replicate 1 = 7.41e5; Renilla control light, replicate 2 = 7.00e5; inactive.
Against ey [DRSC17173], the entry reads firefly reporter light, replicate 1 = 2.13e5; firefly reporter light, replicate 2 = 1.52e5; Renilla control light, replicate 1 = 3.81e6; Renilla control light, replicate 2 = 1.44e6; inactive.
Against ey [DRSC26309], the values are firefly reporter light, replicate 1 = 2.83e5; firefly reporter light, replicate 2 = 2.83e5; Renilla control light, replicate 1 = 4.76e5; Renilla control light, replicate 2 = 4.28e5; inactive.
Depletion of Cc2d2a [DRSC06750] came out at: firefly reporter light, replicate 1 = 81469; firefly reporter light, replicate 2 = 86111; Renilla control light, replicate 1 = 1.80e6; Renilla control light, replicate 2 = 1.80e6; inactive.
With knock-down of Cc2d2a [DRSC06779], the screen gave firefly reporter light, replicate 1 = 92413; firefly reporter light, replicate 2 = 1.11e5; Renilla control light, replicate 1 = 1.75e6; Renilla control light, replicate 2 = 1.75e6; inactive.
After knock-down of Cc2d2a [DRSC26325], the screen gave firefly reporter light, replicate 1 = 3.32e5; firefly reporter light, replicate 2 = 3.06e5; Renilla control light, replicate 1 = 6.60e5; Renilla control light, replicate 2 = 8.63e5; inactive.
